In the supplement of paper PMC10849652:
Some of the results follow.

The chains behind the UniProt entries cited, without tags or fusion partners. Where a name states a change or a piece, a line headed by the entry shows the natural chain unless it says otherwise.
UniProt Q0VDI3: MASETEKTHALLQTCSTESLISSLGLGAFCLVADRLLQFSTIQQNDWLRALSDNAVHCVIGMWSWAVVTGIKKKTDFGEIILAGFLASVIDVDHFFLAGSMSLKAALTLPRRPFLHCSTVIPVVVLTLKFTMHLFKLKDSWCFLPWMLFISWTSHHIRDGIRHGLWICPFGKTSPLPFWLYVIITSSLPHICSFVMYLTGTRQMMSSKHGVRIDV
UniProt Q5T292: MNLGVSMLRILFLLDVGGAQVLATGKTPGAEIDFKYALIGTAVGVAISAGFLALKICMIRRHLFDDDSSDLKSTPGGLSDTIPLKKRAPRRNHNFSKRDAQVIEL
UniProt Q5SWH9: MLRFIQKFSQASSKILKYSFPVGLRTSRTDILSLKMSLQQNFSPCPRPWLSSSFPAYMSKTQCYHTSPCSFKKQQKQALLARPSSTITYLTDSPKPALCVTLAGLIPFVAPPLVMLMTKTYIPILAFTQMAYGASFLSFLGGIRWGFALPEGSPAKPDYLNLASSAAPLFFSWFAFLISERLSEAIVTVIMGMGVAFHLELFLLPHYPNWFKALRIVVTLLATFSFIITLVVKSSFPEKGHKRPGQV
UniProt P21580: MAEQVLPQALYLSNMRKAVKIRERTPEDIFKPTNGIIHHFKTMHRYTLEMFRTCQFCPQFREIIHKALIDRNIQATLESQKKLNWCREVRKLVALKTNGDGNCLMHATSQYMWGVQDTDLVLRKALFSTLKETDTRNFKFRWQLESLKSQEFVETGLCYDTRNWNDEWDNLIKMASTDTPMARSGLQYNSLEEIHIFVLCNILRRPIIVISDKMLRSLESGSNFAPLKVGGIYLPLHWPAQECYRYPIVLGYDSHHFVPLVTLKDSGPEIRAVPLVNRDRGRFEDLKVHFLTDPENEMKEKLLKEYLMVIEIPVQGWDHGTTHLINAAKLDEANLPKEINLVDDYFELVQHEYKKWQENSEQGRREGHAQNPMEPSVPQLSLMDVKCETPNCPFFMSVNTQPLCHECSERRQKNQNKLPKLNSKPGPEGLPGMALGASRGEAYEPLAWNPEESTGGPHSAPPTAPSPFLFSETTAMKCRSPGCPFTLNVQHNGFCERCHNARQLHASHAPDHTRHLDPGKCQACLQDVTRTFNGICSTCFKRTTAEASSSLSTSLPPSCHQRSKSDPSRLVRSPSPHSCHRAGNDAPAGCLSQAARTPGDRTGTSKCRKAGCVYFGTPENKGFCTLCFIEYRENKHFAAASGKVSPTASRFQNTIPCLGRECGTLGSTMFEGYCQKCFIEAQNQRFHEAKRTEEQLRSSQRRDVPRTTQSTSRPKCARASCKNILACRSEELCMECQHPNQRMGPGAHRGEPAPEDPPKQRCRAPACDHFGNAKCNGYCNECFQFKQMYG
UniProt Q9BX74: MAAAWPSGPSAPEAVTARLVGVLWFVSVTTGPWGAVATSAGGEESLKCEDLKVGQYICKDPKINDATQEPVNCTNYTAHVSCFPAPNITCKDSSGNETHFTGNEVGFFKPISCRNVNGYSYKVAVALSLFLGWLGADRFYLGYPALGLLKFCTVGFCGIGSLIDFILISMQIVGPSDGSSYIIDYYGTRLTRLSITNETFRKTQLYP
UniProt A0PK00: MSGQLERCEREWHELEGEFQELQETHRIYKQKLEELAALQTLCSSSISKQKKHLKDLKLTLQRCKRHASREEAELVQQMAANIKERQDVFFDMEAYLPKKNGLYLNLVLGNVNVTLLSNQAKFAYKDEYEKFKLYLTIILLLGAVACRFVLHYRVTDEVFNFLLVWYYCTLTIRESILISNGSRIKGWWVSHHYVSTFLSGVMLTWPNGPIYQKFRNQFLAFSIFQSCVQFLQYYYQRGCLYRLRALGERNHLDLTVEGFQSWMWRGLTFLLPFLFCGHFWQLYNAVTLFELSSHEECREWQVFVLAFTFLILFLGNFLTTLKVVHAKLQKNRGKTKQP
UniProt P62328: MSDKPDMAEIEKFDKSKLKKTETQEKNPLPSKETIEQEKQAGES
UniProt Q7Z403: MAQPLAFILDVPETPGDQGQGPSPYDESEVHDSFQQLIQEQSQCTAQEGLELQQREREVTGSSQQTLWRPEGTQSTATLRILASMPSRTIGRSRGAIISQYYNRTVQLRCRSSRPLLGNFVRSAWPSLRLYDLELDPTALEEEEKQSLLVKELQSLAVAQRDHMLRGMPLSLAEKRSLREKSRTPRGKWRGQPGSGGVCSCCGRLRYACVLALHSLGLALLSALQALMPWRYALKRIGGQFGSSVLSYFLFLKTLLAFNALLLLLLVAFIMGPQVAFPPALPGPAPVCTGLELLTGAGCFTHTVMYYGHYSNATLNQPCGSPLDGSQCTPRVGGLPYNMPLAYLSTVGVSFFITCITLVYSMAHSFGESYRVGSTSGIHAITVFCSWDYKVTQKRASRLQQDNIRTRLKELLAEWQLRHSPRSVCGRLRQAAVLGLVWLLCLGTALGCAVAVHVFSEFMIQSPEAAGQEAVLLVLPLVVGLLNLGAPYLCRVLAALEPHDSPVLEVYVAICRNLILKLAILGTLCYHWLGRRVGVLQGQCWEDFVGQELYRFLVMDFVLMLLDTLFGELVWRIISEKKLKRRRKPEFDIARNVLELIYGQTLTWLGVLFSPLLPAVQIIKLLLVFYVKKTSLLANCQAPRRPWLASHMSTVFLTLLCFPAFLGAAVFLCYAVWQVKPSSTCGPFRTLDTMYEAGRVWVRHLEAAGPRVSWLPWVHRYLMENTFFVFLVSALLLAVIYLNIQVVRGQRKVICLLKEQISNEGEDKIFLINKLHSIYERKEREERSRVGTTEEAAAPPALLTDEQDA
UniProt Q5SNT2: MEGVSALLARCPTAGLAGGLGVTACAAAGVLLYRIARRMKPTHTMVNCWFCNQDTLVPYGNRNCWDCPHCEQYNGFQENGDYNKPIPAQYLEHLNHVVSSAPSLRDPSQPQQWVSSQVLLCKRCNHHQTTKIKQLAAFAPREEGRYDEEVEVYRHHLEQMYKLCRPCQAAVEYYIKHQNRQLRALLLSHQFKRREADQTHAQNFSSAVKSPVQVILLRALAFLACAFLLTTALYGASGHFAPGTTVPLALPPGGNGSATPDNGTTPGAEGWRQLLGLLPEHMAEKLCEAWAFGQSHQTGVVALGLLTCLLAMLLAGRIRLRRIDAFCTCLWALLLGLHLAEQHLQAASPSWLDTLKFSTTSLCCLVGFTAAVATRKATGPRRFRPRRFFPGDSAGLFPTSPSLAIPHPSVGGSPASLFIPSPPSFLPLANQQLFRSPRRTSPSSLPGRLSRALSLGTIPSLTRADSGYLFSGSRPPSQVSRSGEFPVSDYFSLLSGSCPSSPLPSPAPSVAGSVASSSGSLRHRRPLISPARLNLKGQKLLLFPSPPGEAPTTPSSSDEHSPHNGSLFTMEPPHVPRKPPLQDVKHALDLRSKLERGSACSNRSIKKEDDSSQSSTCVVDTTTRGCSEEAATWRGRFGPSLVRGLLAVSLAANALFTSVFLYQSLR
UniProt Q6UWJ1: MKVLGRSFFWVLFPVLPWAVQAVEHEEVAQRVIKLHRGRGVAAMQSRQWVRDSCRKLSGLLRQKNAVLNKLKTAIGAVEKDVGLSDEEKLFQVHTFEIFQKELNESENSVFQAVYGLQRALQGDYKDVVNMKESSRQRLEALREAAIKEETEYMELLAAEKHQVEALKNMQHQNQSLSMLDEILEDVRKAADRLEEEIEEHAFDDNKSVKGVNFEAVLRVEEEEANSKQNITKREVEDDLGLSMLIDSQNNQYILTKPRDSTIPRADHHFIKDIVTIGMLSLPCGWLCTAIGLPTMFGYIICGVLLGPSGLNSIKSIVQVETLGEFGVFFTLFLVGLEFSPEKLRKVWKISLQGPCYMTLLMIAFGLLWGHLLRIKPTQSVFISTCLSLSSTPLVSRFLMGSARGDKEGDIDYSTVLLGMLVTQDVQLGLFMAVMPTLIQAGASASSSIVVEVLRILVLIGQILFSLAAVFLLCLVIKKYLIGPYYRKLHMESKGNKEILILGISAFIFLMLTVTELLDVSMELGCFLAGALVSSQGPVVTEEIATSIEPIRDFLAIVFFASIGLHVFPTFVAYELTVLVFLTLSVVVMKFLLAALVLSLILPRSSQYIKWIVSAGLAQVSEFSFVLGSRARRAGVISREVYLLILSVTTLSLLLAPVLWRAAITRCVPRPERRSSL
UniProt Q9BVX2: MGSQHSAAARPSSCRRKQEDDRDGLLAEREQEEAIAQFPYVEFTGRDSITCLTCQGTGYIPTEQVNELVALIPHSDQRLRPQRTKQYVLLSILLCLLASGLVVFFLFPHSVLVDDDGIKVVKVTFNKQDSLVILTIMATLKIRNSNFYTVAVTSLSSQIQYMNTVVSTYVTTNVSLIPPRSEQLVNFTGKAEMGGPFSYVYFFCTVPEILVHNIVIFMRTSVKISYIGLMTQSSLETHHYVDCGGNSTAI
UniProt Q9Y2Y6: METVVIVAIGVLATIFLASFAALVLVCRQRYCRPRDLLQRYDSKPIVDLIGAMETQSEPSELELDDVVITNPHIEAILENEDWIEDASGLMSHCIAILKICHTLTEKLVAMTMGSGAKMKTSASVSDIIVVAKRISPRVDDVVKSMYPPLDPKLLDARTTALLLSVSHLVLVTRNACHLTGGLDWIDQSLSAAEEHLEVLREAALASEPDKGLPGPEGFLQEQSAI
UniProt O75069: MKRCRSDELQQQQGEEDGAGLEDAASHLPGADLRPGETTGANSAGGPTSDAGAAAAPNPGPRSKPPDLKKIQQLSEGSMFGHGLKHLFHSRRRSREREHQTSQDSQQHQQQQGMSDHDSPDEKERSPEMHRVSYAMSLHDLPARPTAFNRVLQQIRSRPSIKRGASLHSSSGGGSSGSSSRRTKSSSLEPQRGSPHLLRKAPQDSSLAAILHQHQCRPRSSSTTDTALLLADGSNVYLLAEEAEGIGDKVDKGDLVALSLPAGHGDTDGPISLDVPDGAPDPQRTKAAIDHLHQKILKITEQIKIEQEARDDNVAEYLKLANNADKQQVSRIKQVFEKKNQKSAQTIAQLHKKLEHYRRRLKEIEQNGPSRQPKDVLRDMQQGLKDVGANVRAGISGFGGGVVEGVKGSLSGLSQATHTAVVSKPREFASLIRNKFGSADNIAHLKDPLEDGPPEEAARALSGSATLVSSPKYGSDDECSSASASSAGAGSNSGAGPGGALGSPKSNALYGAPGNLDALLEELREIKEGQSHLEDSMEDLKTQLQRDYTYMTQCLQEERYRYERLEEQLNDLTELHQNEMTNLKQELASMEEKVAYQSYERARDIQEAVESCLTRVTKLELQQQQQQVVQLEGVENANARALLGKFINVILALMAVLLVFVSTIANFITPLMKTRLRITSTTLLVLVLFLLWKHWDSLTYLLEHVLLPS
UniProt Q9BSA9: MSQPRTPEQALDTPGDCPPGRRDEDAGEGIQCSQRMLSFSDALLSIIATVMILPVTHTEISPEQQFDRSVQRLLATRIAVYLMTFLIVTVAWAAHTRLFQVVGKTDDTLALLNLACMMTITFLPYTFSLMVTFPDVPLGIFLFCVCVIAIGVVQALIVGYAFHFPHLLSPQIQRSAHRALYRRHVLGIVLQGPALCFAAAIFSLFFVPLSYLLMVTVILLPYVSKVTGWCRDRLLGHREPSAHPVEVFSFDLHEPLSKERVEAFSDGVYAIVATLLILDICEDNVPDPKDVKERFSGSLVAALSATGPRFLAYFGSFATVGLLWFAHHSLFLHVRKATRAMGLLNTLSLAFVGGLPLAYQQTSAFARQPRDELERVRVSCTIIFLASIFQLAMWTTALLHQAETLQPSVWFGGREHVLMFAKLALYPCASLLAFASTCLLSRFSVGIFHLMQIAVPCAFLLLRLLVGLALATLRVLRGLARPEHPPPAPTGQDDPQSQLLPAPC
UniProt Q9H6X4: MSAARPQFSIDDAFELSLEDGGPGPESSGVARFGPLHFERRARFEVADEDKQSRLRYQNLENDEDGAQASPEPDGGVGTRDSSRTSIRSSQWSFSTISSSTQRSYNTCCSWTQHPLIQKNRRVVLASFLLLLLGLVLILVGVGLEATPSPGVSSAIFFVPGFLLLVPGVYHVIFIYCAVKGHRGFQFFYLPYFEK
UniProt Q9BSE2: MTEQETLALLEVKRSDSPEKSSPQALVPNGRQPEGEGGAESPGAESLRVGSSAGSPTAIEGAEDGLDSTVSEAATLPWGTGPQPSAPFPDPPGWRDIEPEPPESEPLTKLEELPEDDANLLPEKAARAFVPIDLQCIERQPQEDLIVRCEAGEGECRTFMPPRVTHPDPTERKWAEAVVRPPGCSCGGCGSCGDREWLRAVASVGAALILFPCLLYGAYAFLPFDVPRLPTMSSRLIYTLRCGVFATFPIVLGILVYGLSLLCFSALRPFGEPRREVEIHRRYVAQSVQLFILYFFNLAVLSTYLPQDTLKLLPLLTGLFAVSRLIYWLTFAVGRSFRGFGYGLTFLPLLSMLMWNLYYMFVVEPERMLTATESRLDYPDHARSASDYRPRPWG
UniProt Q8NCS4: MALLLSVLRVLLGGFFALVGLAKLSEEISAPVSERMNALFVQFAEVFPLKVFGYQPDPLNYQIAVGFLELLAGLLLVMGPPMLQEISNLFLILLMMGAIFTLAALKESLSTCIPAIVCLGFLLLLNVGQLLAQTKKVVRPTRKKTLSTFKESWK

Experiments:
Test in all cases: log2 fold change, soluble protein after heating vs DMSO (PISA); higher = thermal stabilisation; K562 cells, 10 uM, 30 min; active = over 0.2 and 3.5 SD of the protein, either way, in both replicates (recomputed)
[1] = compound: NC(=O)c1cnc(N[C@@H]2CCCC[C@@H]2N)nc1Nc1cccc(-n2nccn2)c1
Method in brief: (§1)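 Soluble protein was defined as the supernatant after 21,000xg for 90 min. It came from K562 cells at 2×10^6 cells/mL given 10 μM compound for 30 min, heated in aliquots for 3 min across 48°C-58°C, pooled, and extracted in PBS with 0.5% NP-40 at 4°C, and was quantified by TMTpro 16plex LC-MS/MS with equalised channel sums. Thermal stability against control samples, from duplicates, is reported as log2 fold change.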

[2] = compound: NCC(=O)Nc1ccc(-n2nc(C(F)(F)F)cc2-c2ccc3c(ccc4ccccc43)c2)cc1
Method in brief: as §1

[3] = compound: O=C(CCCCCCC(=O)Nc1ccccc1)NO [vorinostat]
Method in brief: as §1

[4] = compound: O=C(CCCCCCNC(=O)c1cnc(N(c2ccccc2)c2ccccc2Cl)nc1)NO [citarinostat]
Method in brief: as §1

[5] = compound: c1cc(OCCN2CCCCC2)cc(-c2n[nH]c3ccc(-c4nnc[nH]4)cc23)c1
Method in brief: as §1

[6] = compound: NC1(c2ccc(-c3nc4ccn5c(=O)[nH]nc5c4cc3-c3ccccc3)cc2)CCC1
Method in brief: as §1

[7] = compound: O=C(O)c1ccc2c(c1)nc(Nc1cccc(Cl)c1)c1ccncc12 [silmitasertib]
Method in brief: as §1

[8] = compound: O=C1NC(=O)C(c2cnc3ccccn23)=C1c1cn2c3c(cc(F)cc13)CN(C(=O)N1CCCCC1)CC2
Method in brief: as §1

[9] = compound: NC(=O)Nc1cc(-c2cccc(F)c2)sc1C(=O)N[C@H]1CCCNC1
Method in brief: as §1

[10] = compound: Nc1ccccc1NC(=O)c1ccc(CNC(=O)OCc2cccnc2)cc1 [entinostat]
Method in brief: as §1

Measured: log2 fold change

TMEM267 (UniProt Q0VDI3)
inactive: [1] -0.085 | [2] -0.226 | [3] -0.177 | [4] -0.101 | [5] 0.082

TMEM273 isoform 2 (UniProt Q5T292)
inactive: [1] -0.286 | [2] -0.102

TMEM69 (UniProt Q5SWH9)
inactive: [1] -0.146 | [6] -0.156 | [3] 0.012 | [4] 0.017 | [7] 0.003 | [5] -0.208

TMEM94 isoform 2 (UniProt Q12767)
inactive: [1] -0.016

TNFAIP1 (UniProt Q13829)
inactive: [1] 0.108 | [6] 0.003 | [2] -0.007 | [4] 0.116 | [7] 0.051 | [8] -0.325 | [5] -0.219

TNFAIP3 (UniProt P21580)
inactive: [1] 0.024 | [6] -0.033 | [2] -0.013 | [3] -0.003 | [7] 0.092 | [8] -0.115

TMEM101 (UniProt Q96IK0)
inactive: [1] -0.155 | [6] -0.13 | [2] -0.167 | [3] -0.017 | [4] 0.129 | [7] -0.002 | [5] -0.059

TNFAIP2 (UniProt Q03169)
inactive: [9] -0.025 | [10] -0.049

TM2D1 (UniProt Q9BX74)
inactive: [9] -0.3 | [10] 0.121

TMEM120B (UniProt A0PK00)
inactive: [1] 0.146 | [6] 0.02 | [2] 0.253 | [3] -0.068 | [7] 0.099

TMSB4X (UniProt P62328)
inactive: [1] 0.314 | [6] 0.63 | [2] -0.123 | [4] -0.338 | [7] -0.105 | [8] -1.08 | [5] 0.271

TMC6 (UniProt Q7Z403)
inactive: [1] -0.073 | [6] 0.087 | [2] 0.072 | [3] -0.002 | [4] -0.028 | [7] 0.102 | [5] -0.045

TMEM201 (UniProt Q5SNT2)
inactive: [9] 0.063 | [6] 0.049 | [10] -0.037 | [3] 0.041 | [7] 0.021 | [8] 0.084

TMCO3 (UniProt Q6UWJ1)
inactive: [9] -0.019 | [6] 0.026 | [2] 0.32 | [10] -0.008 | [3] -0.197 | [7] 0.134 | [8] -0.008

TLE5 isoform 2 (UniProt Q08117)
inactive: [1] -0.009 | [6] -0.006 | [2] 0.064 | [3] 0.028 | [4] -0.103 | [7] -0.106 | [5] -0.22

TMCC3 (UniProt Q9ULS5)
inactive: [9] 0.002 | [6] -0.095 | [10] -0.012 | [4] -0.012 | [7] -0.026 | [5] -0.024

TNFRSF1A (UniProt P19438)
inactive: [9] -0.377 | [10] -0.086 | [3] -0.144 | [8] 0.108

TMEM106C (UniProt Q9BVX2)
inactive: [9] 0.129 | [2] 0.2 | [10] 0.049

TMEM98 (UniProt Q9Y2Y6)
inactive: [6] 0.226 | [7] 0.162

TMEM104 (UniProt Q8NE00)
inactive: [1] 0.08 | [6] 0.232 | [3] 0.068 | [4] -0.063 | [7] 0.097 | [8] 0.143 | [5] -0.051

TMED8 (UniProt Q6PL24)
inactive: [1] 0.014 | [6] -0.096 | [2] 0.042 | [3] -0.03 | [4] 0.007 | [7] 0.057 | [5] 0.041

TMCC2 (UniProt O75069)
inactive: [1] -0.217

TMEM175 (UniProt Q9BSA9)
inactive: [1] -0.131 | [4] -0.15 | [5] 0.014

Eight successive records already listed, for reference:
TMEM273 isoform 2 (UniProt Q5T292)
inactive: [1] -0.286 | [2] -0.102

TMEM69 (UniProt Q5SWH9)
inactive: [1] -0.146 | [6] -0.156 | [3] 0.012 | [4] 0.017 | [7] 0.003 | [5] -0.208

TMEM94 isoform 2 (UniProt Q12767)
inactive: [1] -0.016

TNFAIP1 (UniProt Q13829)
inactive: [1] 0.108 | [6] 0.003 | [2] -0.007 | [4] 0.116 | [7] 0.051 | [8] -0.325 | [5] -0.219

TNFAIP3 (UniProt P21580)
inactive: [1] 0.024 | [6] -0.033 | [2] -0.013 | [3] -0.003 | [7] 0.092 | [8] -0.115

TMEM101 (UniProt Q96IK0)
inactive: [1] -0.155 | [6] -0.13 | [2] -0.167 | [3] -0.017 | [4] 0.129 | [7] -0.002 | [5] -0.059

TNFAIP2 (UniProt Q03169)
inactive: [9] -0.025 | [10] -0.049

TM2D1 (UniProt Q9BX74)
inactive: [9] -0.3 | [10] 0.121

(next part)

TMEM260 (UniProt Q9NX78)
inactive: [1] 0.098 | [6] -0.026 | [7] 0.047

TMEM134 (UniProt Q9H6X4)
inactive: [1] 0.124 | [6] -0.066 | [3] -0.182 | [7] -0.014 | [8] 0.057

TLR4 (UniProt O00206)
inactive: [9] 0 | [2] -0.122 | [10] -0.063 | [3] -0.084 | [4] -0.018 | [5] -0.055

TMCO6 isoform 2 (UniProt Q96DC7)
inactive: [3] 0.237

TMEM79 (UniProt Q9BSE2)
inactive: [1] 0.24

TMEM184B (UniProt Q9Y519)
inactive: [9] 0.056 | [6] 0.021 | [10] 0.002 | [7] 0.034

TMEM35B (UniProt Q8NCS4)
inactive: [6] 0.053 | [2] -0.105 | [3] -0.126 | [7] 0.03
